# The list shows a part of the results.
# What was measured:
# Test in all cases: glycan array binding signal (z-score within array); higher = stronger binding
# Settings in all cases: glycan notation: IUPAC condensed, linker removed
# [1] = target: Fuc(a1-2)[GalNAc(b1-3)]Gal
# In short: (§1)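 Columns mapping to the same glycan were averaged after glycan names were converted to IUPAC-condensed notation. The data come from 3228 arrays in the Consortium for Functional Glycomics database, limited to those with an available protein sequence. Binding is reported as a within-array Z-score averaged across arrays of one protein sequence and across linkers.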
# Fuc(a1-3)GlcNAc = target: Fuc(a1-3)GlcNAc
# In short: as §1
# [2] = target: Fuc(a1-3)[Gal(b1-4)]Glc6S
# In short: as §1
# [3] = target: Fuc(a1-3)[Gal(b1-4)]GlcNAc
# In short: as §1
# [4] = target: Fuc(a1-3)[Gal(b1-4)]GlcNAc(b1-2)Man
# In short: as §1
# [5] = target: Fuc(a1-3)[Gal(b1-4)]GlcNAc(b1-2)Man(a1-3)[Fuc(a1-3)[Gal(b1-4)]GlcNAc(b1-2)Man(a1-6)]Man(b1-4)GlcNAc(b1-4)GlcNAc
# In short: as §1
# [6] = target: Fuc(a1-3)[Gal(b1-4)]GlcNAc(b1-2)Man(a1-3)[Fuc(a1-3)[Gal(b1-4)]GlcNAc(b1-2)Man(a1-6)]Man(b1-4)GlcNAc(b1-4)[Fuc(a1-6)]GlcNAc
# In short: as §1
# [7] = target: Fuc(a1-3)[Gal(b1-4)]GlcNAc(b1-3)Gal(b1-3)[Fuc(a1-4)]GlcNAc
# In short: as §1
# [8] = target: Fuc(a1-3)[Gal(b1-4)]GlcNAc(b1-3)Gal(b1-4)[Fuc(a1-3)]GlcNAc
# In short: as §1
# [9] = target: Fuc(a1-3)[Gal(b1-4)]GlcNAc(b1-3)Gal(b1-4)[Fuc(a1-3)]GlcNAc(b1-3)Gal(b1-4)[Fuc(a1-3)]GlcNAc
# In short: as §1
# [10] = target: Fuc(a1-3)[Gal(b1-4)]GlcNAc(b1-3)GalNAc
# In short: as §1
# [11] = target: Fuc(a1-3)[Gal(b1-4)]GlcNAc(b1-6)GalNAc
# In short: as §1
# [12] = target: Fuc(a1-3)[Gal(b1-4)]GlcNAc(b1-6)[Gal(b1-3)GlcNAc(b1-3)]Gal(b1-4)Glc
# In short: as §1
# [13] = target: Fuc(a1-3)[Gal(b1-4)]GlcNAc6S
# In short: as §1
# [14] = target: Fuc(a1-3)[Gal3S(b1-4)]Glc
# In short: as §1
# [15] = target: Fuc(a1-3)[Gal3S(b1-4)]GlcNAc
# In short: as §1
# [16] = target: Fuc(a1-3)[Gal3S(b1-4)]GlcNAc6S
# In short: as §1
# [17] = target: Fuc(a1-3)[GalNAc(b1-4)]GlcNAc
# In short: as §1
# [18] = target: Fuc(a1-3)[GalNAc(b1-4)]GlcNAc6S
# In short: as §1
# Fuc(a1-4)GlcNAc = target: Fuc(a1-4)GlcNAc
# In short: as §1
# Fuc(b1-3)GlcNAc = target: Fuc(b1-3)GlcNAc
# In short: as §1
# Gal(a1-2)Gal = target: Gal(a1-2)Gal
# In short: as §1
# Gal(a1-3)Gal = target: Gal(a1-3)Gal
# In short: as §1
# Gal(a1-3)Gal(b1-3)GlcNAc = target: Gal(a1-3)Gal(b1-3)GlcNAc
# In short: as §1
# [19] = target: Gal(a1-3)Gal(b1-3)GlcNAc(b1-2)Man
# In short: as §1
# [20] = target: Gal(a1-3)Gal(b1-3)GlcNAc(b1-2)Man(a1-3)[Gal(a1-3)Gal(b1-3)GlcNAc(b1-2)Man(a1-6)]Man(b1-4)GlcNAc(b1-4)GlcNAc
# In short: as §1
# [21] = target: Gal(a1-3)Gal(b1-3)GlcNAc(b1-3)GalNAc
# In short: as §1
# [22] = target: Gal(a1-3)Gal(b1-3)GlcNAc(b1-6)GalNAc
# In short: as §1
# [23] = target: Gal(a1-3)Gal(b1-3)[Fuc(a1-4)]GlcNAc(b1-2)Man(a1-3)[Gal(a1-3)Gal(b1-3)[Fuc(a1-4)]GlcNAc(b1-2)Man(a1-6)]Man(b1-4)GlcNAc(b1-4)GlcNAc
# In short: as §1
# Gal(a1-3)Gal(b1-4)Glc = target: Gal(a1-3)Gal(b1-4)Glc
# In short: as §1
# Gal(a1-3)Gal(b1-4)GlcNAc = target: Gal(a1-3)Gal(b1-4)GlcNAc
# In short: as §1
# [24] = target: Gal(a1-3)Gal(b1-4)GlcNAc(b1-2)Man
# In short: as §1
# [25] = target: Gal(a1-3)Gal(b1-4)GlcNAc(b1-2)Man(a1-3)[Gal(a1-3)Gal(b1-4)GlcNAc(b1-2)Man(a1-6)]Man(b1-4)GlcNAc(b1-4)GlcNAc
# In short: as §1
# [26] = target: Gal(a1-3)Gal(b1-4)GlcNAc(b1-3)GalNAc
# In short: as §1
# [27] = target: Gal(a1-3)Gal(b1-4)GlcNAc(b1-6)GalNAc
# In short: as §1
# [28] = target: Gal(a1-3)Gal(b1-4)[Fuc(a1-3)]GlcNAc
# In short: as §1
# [29] = target: Gal(a1-3)Gal(b1-4)[Fuc(a1-3)]GlcNAc(b1-2)Man(a1-3)[Gal(a1-3)Gal(b1-4)[Fuc(a1-3)]GlcNAc(b1-2)Man(a1-6)]Man(b1-4)GlcNAc(b1-4)GlcNAc
# In short: as §1
# Gal(a1-3)GalNAc = target: Gal(a1-3)GalNAc
# In short: as §1
# [30] = target: Gal(a1-3)[Gal(a1-4)]Gal(b1-4)GlcNAc
# In short: as §1
# [31] = target: Gal(a1-4)Gal(b1-3)GlcNAc(b1-2)Man(a1-3)[Gal(a1-4)Gal(b1-3)GlcNAc(b1-2)Man(a1-6)]Man(b1-4)GlcNAc(b1-4)GlcNAc
# In short: as §1
# Gal(a1-4)Gal(b1-4)Glc = target: Gal(a1-4)Gal(b1-4)Glc
# In short: as §1
# Gal(a1-4)Gal(b1-4)GlcNAc = target: Gal(a1-4)Gal(b1-4)GlcNAc
# In short: as §1
# [32] = target: Gal(a1-4)Gal(b1-4)GlcNAc(b1-2)Man(a1-3)[Gal(a1-4)Gal(b1-4)GlcNAc(b1-2)Man(a1-6)]Man(b1-4)GlcNAc(b1-4)GlcNAc
# In short: as §1
# [33] = target: Gal(a1-4)Gal(b1-4)GlcNAc(b1-3)Gal(b1-4)Glc
# In short: as §1
# Gal(a1-4)GlcNAc = target: Gal(a1-4)GlcNAc
# In short: as §1
binder,measurement,setting,value
"XTP3-B-MRH2 (Homo sapiens), Q96DZ1 (protein) EFLSGSYCFRGGVGWWKYEFCYGKHVHQYHEDKDSGKTSVVVGTWNQEEHIEWAKKNTARAYHLQDDGTQTVRMVSHFYGNGDICDITDKPRQVTVKLKCKESDSPHAVTVYMLEPHSCQYILGVESPVICKILDTA",glycan array binding signal (z-score),[1],-0.007
same,glycan array binding signal (z-score),Fuc(a1-3)GlcNAc,-1.66
same,glycan array binding signal (z-score),[2],-0.069
same,glycan array binding signal (z-score),[3],0.581
same,glycan array binding signal (z-score),[4],0.257
same,glycan array binding signal (z-score),[5],0.744
same,glycan array binding signal (z-score),[6],-1.2
same,glycan array binding signal (z-score),[7],-2.1
same,glycan array binding signal (z-score),[8],1.19
same,glycan array binding signal (z-score),[9],0.176
same,glycan array binding signal (z-score),[10],-0.079
same,glycan array binding signal (z-score),[11],0.421
same,glycan array binding signal (z-score),[12],-0.283
same,glycan array binding signal (z-score),[13],-0.412
same,glycan array binding signal (z-score),[14],-0.439
same,glycan array binding signal (z-score),[15],0.047
same,glycan array binding signal (z-score),[16],-0.011
same,glycan array binding signal (z-score),[17],1.43
same,glycan array binding signal (z-score),[18],-0.79
same,glycan array binding signal (z-score),Fuc(a1-4)GlcNAc,2.2
same,glycan array binding signal (z-score),Fuc(b1-3)GlcNAc,-0.321
same,glycan array binding signal (z-score),Gal(a1-2)Gal,-1.11
same,glycan array binding signal (z-score),Gal(a1-3)Gal,0.656
same,glycan array binding signal (z-score),Gal(a1-3)Gal(b1-3)GlcNAc,-0.706
same,glycan array binding signal (z-score),[19],-1.95
same,glycan array binding signal (z-score),[20],0.762
same,glycan array binding signal (z-score),[21],-0.736
same,glycan array binding signal (z-score),[22],-0.122
same,glycan array binding signal (z-score),[23],0.09
same,glycan array binding signal (z-score),Gal(a1-3)Gal(b1-4)Glc,0.965
same,glycan array binding signal (z-score),Gal(a1-3)Gal(b1-4)GlcNAc,-0.446
same,glycan array binding signal (z-score),[24],-1.61
same,glycan array binding signal (z-score),[25],-0.577
same,glycan array binding signal (z-score),[26],0.202
same,glycan array binding signal (z-score),[27],-0.743
same,glycan array binding signal (z-score),[28],-0.893
same,glycan array binding signal (z-score),[29],1.21
same,glycan array binding signal (z-score),Gal(a1-3)GalNAc,1.74
same,glycan array binding signal (z-score),[30],1.63
same,glycan array binding signal (z-score),[31],0.355
same,glycan array binding signal (z-score),Gal(a1-4)Gal(b1-4)Glc,0.392
same,glycan array binding signal (z-score),Gal(a1-4)Gal(b1-4)GlcNAc,-0.24
same,glycan array binding signal (z-score),[32],0.106
same,glycan array binding signal (z-score),[33],-0.362
same,glycan array binding signal (z-score),Gal(a1-4)GlcNAc,-1.44

# Part of the list above, set out differently:
binder | measurement | setting | value
XTP3-B-MRH2 (Homo sapiens), Q96DZ1 (protein) EFLSGSYCFRGGVGWWKYEFCYGKHVHQYHEDKDSGKTSVVVGTWNQEEHIEWAKKNTARAYHLQDDGTQTVRMVSHFYGNGDICDITDKPRQVTVKLKCKESDSPHAVTVYMLEPHSCQYILGVESPVICKILDTA | glycan array binding signal (z-score) | [26] | 0.202
same | glycan array binding signal (z-score) | [27] | -0.743

# — the supplement of paper PMC8728848
